At least one structure is not confirmed: it was looked up by name or label, or the drawing left a doubt.
Experiments:
PKCγ = biological target: T1, PKCγ (Mus musculus, UniProt P63318); experiment: Western blotting of brain tissue of administered mice to evaluate PKC activation; type: in vivo
T1 construct: The cerebral cortex and hippocampus of mice administered with scutellarin were subjected to Western blotting; from tissue; host or cells: mouse cerebral cortex and hippocampus (wild-type and DGKβ knockout mice)

[1] = system: affective disorder model mice (DGKβKO mice); experiment: light/dark box test (affective disorder evaluation system 2); type: in vivo; conditions: oral, 100 mg/mouse (Fig. 2)
GFP-PKCγ = biological target: T2, GFP-PKCγ (Homo sapiens, UniProt P05129); experiment: PKCγ activity inhibitory action in TPA-treated COS7 cells expressing GFP-PKCγ (Western blotting for PKCγ and phosphorylated PKCγ); type: cell-based; conditions: treated with TPA and flavonoid, n=2 (Fig. 5)
T2 construct: expressed in transfected cells; host or cells: COS7 cells, electroporation, 48 h
Method: The PKCγ activity inhibitory action of various flavonoids was tested. Scutellarin (Scu), baicalin (Bai), luteolin (Lut), and apigenin (Api) were used as various flavonoids. A plasmid encoding GFP-PKCγ was introduced into COS7 cells by electroporation and cultured for 48 hours to express GFP-PKCγ. After treating the cells with TPA (12-O-Tetradecanoylphorbol-13-acetate, activator of PKCγ) and each flavonoid, the cells were ground and proteins were subjected to SDS-PAGE. Thereafter, Western blotting was performed for PKCγ and phosphorylated PKCγ (activated form).

Row | SMILES | phosphorylation of PKCγ (PKCγ; cerebral cortex of affective disorder model mice administered with lithium (Fig. 1)) | activity of PKCγ (PKCγ; cerebral cortex of affective disorder model mice with scutellarin administration (Fig. 3)) | activity of PKCγ (PKCγ; hippocampus of affective disorder model mice with scutellarin administration (Fig. 4)) | number of times of entry into the light box [1] | time required to move to the light box for the first time [1] | PKCγ activity inhibitory action (GFP-PKCγ)
1 | [Li] [lithium, reference compound] | reduced |  |  |  |  | 
2 | O=C(O)[C@H]1O[C@@H](Oc2cc3oc(-c4ccc(O)cc4)cc(=O)c3c(O)c2O)[C@H](O)[C@@H](O)[C@@H]1O [scutellarin] |  | improved to a normal level | improved to a normal level | recovered to the same level as that of the normal mice without scutellarin administration | significant recovery | observed
